# Experimental data taken from the supplement of paper PMC8728848.
# Some of the results follow.
# B1: CBP21 (Serratia marcescens), O83009 (protein)
# chain: MNKTSRTLLSLGLLSAAMFGVSQQANAHGYVESPASRAYQCKLQLNTQCGSVQAEPQSVEGLKGFPQAGPADGHIASADKSTFFELDQQTPTRWNKLNLKTGPNSFTWKLTARHSTTSWRYFITKPNWDASQPLTRASFDLTPFCQFNDGGAIPAAQVTHQCNIPADRSGSHVILAVWDIADTANAFYQAIDVNLSK
# Key:
# Assay in all cases: glycan array binding signal (z-score within array); higher = stronger binding
# Details in all cases: glycan notation: IUPAC condensed, linker removed; mutation: Y54A
# Fuc(a1-2)Gal(b1-4)Glc = target: Fuc(a1-2)Gal(b1-4)Glc
# Outline: (§1)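 The binding signal is a Z-score computed within each array. Data were drawn from 3228 arrays in the Consortium for Functional Glycomics database, restricted to those with a known protein sequence. Scores were averaged over arrays of the same protein sequence at different concentrations or buffers, and over linkers, and negative values can be taken as non-binding.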
# Fuc(a1-2)Gal(b1-4)Glc6S = target: Fuc(a1-2)Gal(b1-4)Glc6S
# Outline: as §1
# Fuc(a1-2)Gal(b1-4)GlcNAc = target: Fuc(a1-2)Gal(b1-4)GlcNAc
# Outline: as §1
# [1] = target: Fuc(a1-2)Gal(b1-4)GlcNAc(b1-2)Man
# Outline: as §1
# [2] = target: Fuc(a1-2)Gal(b1-4)GlcNAc(b1-2)Man(a1-3)[Fuc(a1-2)Gal(b1-4)GlcNAc(b1-2)Man(a1-6)]Man(b1-4)GlcNAc(b1-4)GlcNAc
# Outline: as §1
# [3] = target: Fuc(a1-2)Gal(b1-4)GlcNAc(b1-2)Man(a1-3)[Fuc(a1-2)Gal(b1-4)GlcNAc(b1-2)Man(a1-6)]Man(b1-4)GlcNAc(b1-4)[Fuc(a1-6)]GlcNAc
# Outline: as §1
# [4] = target: Fuc(a1-2)Gal(b1-4)GlcNAc(b1-2)[Fuc(a1-2)Gal(b1-4)GlcNAc(b1-4)]Man(a1-3)[Fuc(a1-2)Gal(b1-4)GlcNAc(b1-2)Man(a1-6)]Man(b1-4)GlcNAc(b1-4)GlcNAc
# Outline: as §1
# [5] = target: Fuc(a1-2)Gal(b1-4)GlcNAc(b1-3)Gal(b1-4)GlcNAc
# Outline: as §1
# [6] = target: Fuc(a1-2)Gal(b1-4)GlcNAc(b1-3)Gal(b1-4)GlcNAc(b1-2)Man(a1-3)[Fuc(a1-2)Gal(b1-4)GlcNAc(b1-3)Gal(b1-4)GlcNAc(b1-2)Man(a1-6)]Man(b1-4)GlcNAc(b1-4)GlcNAc
# Outline: as §1
# [7] = target: Fuc(a1-2)Gal(b1-4)GlcNAc(b1-3)Gal(b1-4)GlcNAc(b1-3)Gal(b1-4)GlcNAc
# Outline: as §1
# [8] = target: Fuc(a1-2)Gal(b1-4)GlcNAc(b1-3)GalNAc
# Outline: as §1
# [9] = target: Fuc(a1-2)Gal(b1-4)GlcNAc(b1-3)[Fuc(a1-2)Gal(b1-4)GlcNAc(b1-6)]GalNAc
# Outline: as §1
# [10] = target: Fuc(a1-2)Gal(b1-4)GlcNAc(b1-3)[Fuc(a1-3)[Gal(b1-4)]GlcNAc(b1-6)]Gal(b1-4)Glc
# Outline: as §1
# [11] = target: Fuc(a1-2)Gal(b1-4)GlcNAc(b1-6)GalNAc
# Outline: as §1
# [12] = target: Fuc(a1-2)Gal(b1-4)GlcNAc6S
# Outline: as §1
# [13] = target: Fuc(a1-2)Gal(b1-4)[Fuc(a1-3)]GlcNAc
# Outline: as §1
# [14] = target: Fuc(a1-2)Gal(b1-4)[Fuc(a1-3)]GlcNAc(b1-2)Man(a1-3)[Fuc(a1-2)Gal(b1-4)[Fuc(a1-3)]GlcNAc(b1-2)Man(a1-6)]Man(b1-4)GlcNAc(b1-4)[Fuc(a1-6)]GlcNAc
# Outline: as §1
# [15] = target: Fuc(a1-2)Gal(b1-4)[Fuc(a1-3)]GlcNAc(b1-2)[Fuc(a1-2)Gal(b1-4)[Fuc(a1-3)]GlcNAc(b1-4)]Man(a1-3)[Fuc(a1-2)Gal(b1-4)[Fuc(a1-3)]GlcNAc(b1-2)Man(a1-6)]Man(b1-4)GlcNAc(b1-4)GlcNAc
# Outline: as §1
# [16] = target: Fuc(a1-2)Gal(b1-4)[Fuc(a1-3)]GlcNAc(b1-3)Gal(b1-4)[Fuc(a1-3)]GlcNAc
# Outline: as §1
# [17] = target: Fuc(a1-2)Gal(b1-4)[Fuc(a1-3)]GlcNAc(b1-3)Gal(b1-4)[Fuc(a1-3)]GlcNAc(b1-3)Gal(b1-4)[Fuc(a1-3)]GlcNAc
# Outline: as §1
# [18] = target: Fuc(a1-2)Gal(b1-4)[Fuc(a1-3)]GlcNAc(b1-3)GalNAc
# Outline: as §1
# [19] = target: Fuc(a1-2)Gal(b1-4)[Fuc(a1-3)]GlcNAc(b1-3)[Neu5Ac(a2-6)Gal(b1-4)GlcNAc(b1-6)]Gal(b1-4)Glc
# Outline: as §1
# [20] = target: Fuc(a1-2)Gal3S(b1-4)GlcNAc
# Outline: as §1
binder,measurement,setting,value
B1,glycan array binding signal (z-score),Fuc(a1-2)Gal(b1-4)Glc,-0.911
same,glycan array binding signal (z-score),Fuc(a1-2)Gal(b1-4)Glc6S,0.01
same,glycan array binding signal (z-score),Fuc(a1-2)Gal(b1-4)GlcNAc,0.658
same,glycan array binding signal (z-score),[1],-0.872
same,glycan array binding signal (z-score),[2],-1.03
same,glycan array binding signal (z-score),[3],0.284
same,glycan array binding signal (z-score),[4],-0.609
same,glycan array binding signal (z-score),[5],0.799
same,glycan array binding signal (z-score),[6],2.34
same,glycan array binding signal (z-score),[7],1.57
same,glycan array binding signal (z-score),[8],-0.464
same,glycan array binding signal (z-score),[9],0.381
same,glycan array binding signal (z-score),[10],-0.407
same,glycan array binding signal (z-score),[11],2.05
same,glycan array binding signal (z-score),[12],-0.485
same,glycan array binding signal (z-score),[13],-0.361
same,glycan array binding signal (z-score),[14],1.71
same,glycan array binding signal (z-score),[15],0.615
same,glycan array binding signal (z-score),[16],-0.822
same,glycan array binding signal (z-score),[17],-0.3
same,glycan array binding signal (z-score),[18],-0.915
same,glycan array binding signal (z-score),[19],-0.723
same,glycan array binding signal (z-score),[20],0.539

# Reformatted with tabs: entries from further up
binder	measurement	setting	value
B1	glycan array binding signal (z-score)	[6]	2.34
same	glycan array binding signal (z-score)	[7]	1.57
